Measured values taken from publication PMC6499421.
These are yes or no findings as the source states them, for the method shown. For some assays here: Binding can be weak; no strength is given. For some assays here: Where a sequence is shown, tags or fusion partners need not be part of it. For some assays here: Binding seen in cells or lysates may run through a third protein.

Assays:
[1] = biological target: T1, MKK1 (LCI construct) (Arabidopsis thaliana) (UniProt Q94A06); assay: split reporter; firefly luciferase complementation imaging (LCI): NLuc and CLuc fusions co-infiltrated in N. benthamiana leaves, luciferase activity recorded by CCD camera
T1 sequence: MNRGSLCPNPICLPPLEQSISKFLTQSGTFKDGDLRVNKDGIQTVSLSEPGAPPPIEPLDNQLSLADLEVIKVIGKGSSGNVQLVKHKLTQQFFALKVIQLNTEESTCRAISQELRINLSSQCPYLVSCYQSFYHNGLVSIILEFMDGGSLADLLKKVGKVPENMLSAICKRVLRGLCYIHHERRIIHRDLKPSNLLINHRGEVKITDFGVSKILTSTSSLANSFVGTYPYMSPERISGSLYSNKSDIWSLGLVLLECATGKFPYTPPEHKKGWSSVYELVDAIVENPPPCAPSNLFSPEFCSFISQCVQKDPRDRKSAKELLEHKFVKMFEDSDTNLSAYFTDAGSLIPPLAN

[2] = biological target: T2, MKK2 fused to CLuc (Arabidopsis thaliana) (UniProt Q9S7U9); assay: as above
T2 sequence: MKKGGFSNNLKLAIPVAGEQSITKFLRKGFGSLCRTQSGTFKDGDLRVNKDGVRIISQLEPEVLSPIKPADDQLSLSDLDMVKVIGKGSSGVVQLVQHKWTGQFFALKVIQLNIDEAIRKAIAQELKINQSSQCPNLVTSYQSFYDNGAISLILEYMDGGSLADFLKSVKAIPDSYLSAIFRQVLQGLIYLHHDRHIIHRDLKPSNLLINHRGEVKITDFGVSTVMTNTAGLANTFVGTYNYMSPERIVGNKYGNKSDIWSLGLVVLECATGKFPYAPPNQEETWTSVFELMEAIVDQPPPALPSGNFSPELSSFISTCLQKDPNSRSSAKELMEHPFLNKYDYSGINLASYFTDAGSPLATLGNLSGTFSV

[3] = biological target: T3, MKK2-KD-nYFP (Arabidopsis thaliana) (UniProt Q9S7U9); assay: split reporter; BiFC: nYFP and cYFP fusions co-infiltrated in RFP-H2B transgenic N. benthamiana leaves, confocal microscopy
T3 sequence: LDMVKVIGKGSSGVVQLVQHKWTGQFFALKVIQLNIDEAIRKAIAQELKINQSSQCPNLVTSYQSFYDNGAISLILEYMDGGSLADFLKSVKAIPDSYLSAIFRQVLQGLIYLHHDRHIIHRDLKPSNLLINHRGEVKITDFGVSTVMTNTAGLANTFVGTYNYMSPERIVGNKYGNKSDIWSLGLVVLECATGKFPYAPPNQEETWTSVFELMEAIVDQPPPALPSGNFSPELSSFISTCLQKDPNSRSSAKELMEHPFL

[4] = biological target: T4, MKK2-CTP-nYFP (Arabidopsis thaliana) (UniProt Q9S7U9); assay: as above
T4 sequence: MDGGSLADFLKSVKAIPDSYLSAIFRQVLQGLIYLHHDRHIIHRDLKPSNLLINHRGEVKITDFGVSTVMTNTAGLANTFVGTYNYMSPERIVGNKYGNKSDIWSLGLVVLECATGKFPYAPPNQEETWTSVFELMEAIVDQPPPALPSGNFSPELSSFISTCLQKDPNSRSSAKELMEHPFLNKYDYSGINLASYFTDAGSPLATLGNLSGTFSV

[5] = biological target: T5, MKK1-nYFP (Arabidopsis thaliana) (UniProt Q94A06); assay: as above
T5 sequence: T1 sequence

[6] = biological target: T6, MKK2-nYFP (Arabidopsis thaliana) (UniProt Q9S7U9); assay: as above
T6 sequence: T2 sequence

[7] = biological target: T7, 3Flag-MKK2 (Arabidopsis thaliana) (UniProt Q9S7U9); assay: co-IP; constructs co-infiltrated in N. benthamiana leaves; IP with Anti-FLAG M2 magnetic beads in 40 mM Tris-HCl pH 7.5, 150 mM NaCl, 5 mM MgCl2, 2 mM EDTA, 5 mM DTT, 0.5% Triton X-100, 5% glycerol; blots with anti-GFP and anti-Flag
T7 sequence: T2 sequence

[8] = biological target: T8, BD-MKK2 (Arabidopsis thaliana) (UniProt Q9S7U9); assay: two-hybrid; pGADT7 (AD) and pGBKT7 (BD) fusions in S. cerevisiae Gold strain; growth on SD/-Leu/-Trp/-His with 5 mM 3-AT, 30°C
T8 sequence: T2 sequence

[9] = biological target: T9, BD-MKK1 (Arabidopsis thaliana) (UniProt Q94A06); assay: as above
T9 sequence: T1 sequence

NLuc-AGO1 (Arabidopsis) = biological target: T10, NLuc-AGO1 (Arabidopsis) (UniProt O04379); assay: split reporter; firefly luciferase complementation imaging (LCI): NLuc and CLuc fusions co-infiltrated in N. benthamiana leaves, luciferase activity recorded by CCD camera
T10 sequence: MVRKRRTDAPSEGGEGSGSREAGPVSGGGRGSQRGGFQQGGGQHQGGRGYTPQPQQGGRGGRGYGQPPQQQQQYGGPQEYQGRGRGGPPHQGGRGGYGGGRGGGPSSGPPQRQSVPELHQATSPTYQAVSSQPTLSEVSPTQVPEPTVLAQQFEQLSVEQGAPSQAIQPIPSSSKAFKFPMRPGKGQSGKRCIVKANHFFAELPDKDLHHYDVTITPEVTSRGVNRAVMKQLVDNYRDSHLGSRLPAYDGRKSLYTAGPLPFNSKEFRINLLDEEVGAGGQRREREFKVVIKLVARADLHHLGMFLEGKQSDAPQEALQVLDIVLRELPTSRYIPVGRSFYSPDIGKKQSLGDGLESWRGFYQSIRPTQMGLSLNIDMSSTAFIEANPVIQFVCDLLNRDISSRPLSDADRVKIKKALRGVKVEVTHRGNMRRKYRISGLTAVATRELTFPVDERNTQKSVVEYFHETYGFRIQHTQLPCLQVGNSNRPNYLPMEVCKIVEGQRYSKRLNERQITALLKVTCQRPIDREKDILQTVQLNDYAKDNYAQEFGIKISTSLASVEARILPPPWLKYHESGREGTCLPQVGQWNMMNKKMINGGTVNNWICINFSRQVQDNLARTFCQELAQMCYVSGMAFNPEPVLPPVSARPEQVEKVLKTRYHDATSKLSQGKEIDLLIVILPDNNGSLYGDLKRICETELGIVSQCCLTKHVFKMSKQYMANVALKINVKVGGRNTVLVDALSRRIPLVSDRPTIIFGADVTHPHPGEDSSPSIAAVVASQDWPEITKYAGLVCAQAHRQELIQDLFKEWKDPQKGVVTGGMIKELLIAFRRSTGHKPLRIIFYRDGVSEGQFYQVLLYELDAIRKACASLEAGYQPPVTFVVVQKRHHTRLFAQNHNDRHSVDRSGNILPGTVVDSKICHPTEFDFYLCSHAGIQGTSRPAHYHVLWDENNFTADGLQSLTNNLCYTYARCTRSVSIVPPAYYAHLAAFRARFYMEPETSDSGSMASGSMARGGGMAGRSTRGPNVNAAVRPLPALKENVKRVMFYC

**Q.** Which results are given for βC1 fused to NLuc?
**A.** binding [1]: no binding; binding [2]: binds

**Q.** For βC1-cYFP, which binding [3] is on record?
**A.** binds

**Q.** And the binding [4]?
**A.** binds

**Q.** What about the binding [5] of the same substance?
**A.** no binding

**Q.** What about the binding [6] of the same substance?
**A.** binds

**Q.** GFP-βC1 was tested. Which binding [7] did it give?
**A.** binds

**Q.** How did the binding [7] turn out when “endogenous actin protein (N. benthamiana (endogenous in leaves))” was run?
**A.** no binding

**Q.** AD-βC1 was tested. Which binding [8] did it give?
**A.** binds

**Q.** And the binding [9]?
**A.** no binding

**Q.** Which binding (NLuc-AGO1 (Arabidopsis)) does the source give for CLuc-CMV 2b (cucumber mosaic virus) here?
**A.** binds
